The text below walks through data of publication PMC9251840.

By UniProt entry, the sequences of proteins in these tests, tags left out.
UniProt P51532: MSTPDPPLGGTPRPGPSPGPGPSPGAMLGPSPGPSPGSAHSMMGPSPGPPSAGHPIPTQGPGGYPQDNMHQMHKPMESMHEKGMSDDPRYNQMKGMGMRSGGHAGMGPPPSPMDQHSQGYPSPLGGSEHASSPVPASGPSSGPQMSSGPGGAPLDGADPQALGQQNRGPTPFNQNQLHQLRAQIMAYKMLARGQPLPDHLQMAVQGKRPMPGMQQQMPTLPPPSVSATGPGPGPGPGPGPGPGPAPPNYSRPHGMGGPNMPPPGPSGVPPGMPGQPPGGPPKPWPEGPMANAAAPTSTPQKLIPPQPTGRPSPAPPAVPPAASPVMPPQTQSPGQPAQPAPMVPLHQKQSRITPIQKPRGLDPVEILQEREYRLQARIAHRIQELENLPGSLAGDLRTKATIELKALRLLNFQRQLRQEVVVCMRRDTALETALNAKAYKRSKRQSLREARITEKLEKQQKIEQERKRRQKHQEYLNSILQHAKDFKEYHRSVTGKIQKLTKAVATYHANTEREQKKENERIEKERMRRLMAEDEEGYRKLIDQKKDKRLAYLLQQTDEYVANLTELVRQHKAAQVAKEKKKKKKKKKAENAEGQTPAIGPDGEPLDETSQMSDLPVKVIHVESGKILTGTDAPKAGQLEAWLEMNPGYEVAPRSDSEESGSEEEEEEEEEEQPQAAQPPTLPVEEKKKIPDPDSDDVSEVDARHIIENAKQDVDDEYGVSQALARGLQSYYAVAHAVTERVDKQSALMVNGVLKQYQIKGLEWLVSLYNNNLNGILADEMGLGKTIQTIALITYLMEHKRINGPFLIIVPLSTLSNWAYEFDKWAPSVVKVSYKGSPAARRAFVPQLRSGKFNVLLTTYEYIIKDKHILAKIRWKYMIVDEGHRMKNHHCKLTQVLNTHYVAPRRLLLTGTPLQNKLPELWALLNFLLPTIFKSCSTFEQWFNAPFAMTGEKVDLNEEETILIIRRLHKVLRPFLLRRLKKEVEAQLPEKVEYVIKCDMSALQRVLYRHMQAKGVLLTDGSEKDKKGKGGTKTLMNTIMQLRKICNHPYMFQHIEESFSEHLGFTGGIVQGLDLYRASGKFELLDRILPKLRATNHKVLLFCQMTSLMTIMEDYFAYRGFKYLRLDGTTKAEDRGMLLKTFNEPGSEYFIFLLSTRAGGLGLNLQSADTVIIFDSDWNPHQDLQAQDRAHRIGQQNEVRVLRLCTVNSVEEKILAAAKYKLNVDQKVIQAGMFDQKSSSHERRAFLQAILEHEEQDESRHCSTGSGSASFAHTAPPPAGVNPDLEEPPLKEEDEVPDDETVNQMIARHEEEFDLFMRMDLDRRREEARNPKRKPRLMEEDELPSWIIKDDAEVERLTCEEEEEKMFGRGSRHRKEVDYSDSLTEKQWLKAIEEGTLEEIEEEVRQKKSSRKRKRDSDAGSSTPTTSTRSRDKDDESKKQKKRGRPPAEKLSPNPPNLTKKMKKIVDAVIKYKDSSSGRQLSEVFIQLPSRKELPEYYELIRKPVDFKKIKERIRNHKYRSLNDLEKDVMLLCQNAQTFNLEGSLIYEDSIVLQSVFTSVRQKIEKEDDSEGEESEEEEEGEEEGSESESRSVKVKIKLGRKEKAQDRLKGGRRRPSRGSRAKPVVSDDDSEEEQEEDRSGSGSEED
UniProt Q969G3: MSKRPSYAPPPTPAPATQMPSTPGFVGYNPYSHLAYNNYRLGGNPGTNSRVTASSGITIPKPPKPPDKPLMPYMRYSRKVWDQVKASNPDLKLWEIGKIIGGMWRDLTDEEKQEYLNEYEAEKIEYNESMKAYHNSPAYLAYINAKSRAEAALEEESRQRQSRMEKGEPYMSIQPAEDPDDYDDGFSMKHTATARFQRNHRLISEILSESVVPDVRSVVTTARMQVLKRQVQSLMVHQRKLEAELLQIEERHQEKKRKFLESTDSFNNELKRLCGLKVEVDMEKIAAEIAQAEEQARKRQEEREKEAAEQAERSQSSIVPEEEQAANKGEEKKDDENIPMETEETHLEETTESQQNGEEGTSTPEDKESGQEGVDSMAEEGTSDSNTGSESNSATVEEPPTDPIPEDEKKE
UniProt Q01844: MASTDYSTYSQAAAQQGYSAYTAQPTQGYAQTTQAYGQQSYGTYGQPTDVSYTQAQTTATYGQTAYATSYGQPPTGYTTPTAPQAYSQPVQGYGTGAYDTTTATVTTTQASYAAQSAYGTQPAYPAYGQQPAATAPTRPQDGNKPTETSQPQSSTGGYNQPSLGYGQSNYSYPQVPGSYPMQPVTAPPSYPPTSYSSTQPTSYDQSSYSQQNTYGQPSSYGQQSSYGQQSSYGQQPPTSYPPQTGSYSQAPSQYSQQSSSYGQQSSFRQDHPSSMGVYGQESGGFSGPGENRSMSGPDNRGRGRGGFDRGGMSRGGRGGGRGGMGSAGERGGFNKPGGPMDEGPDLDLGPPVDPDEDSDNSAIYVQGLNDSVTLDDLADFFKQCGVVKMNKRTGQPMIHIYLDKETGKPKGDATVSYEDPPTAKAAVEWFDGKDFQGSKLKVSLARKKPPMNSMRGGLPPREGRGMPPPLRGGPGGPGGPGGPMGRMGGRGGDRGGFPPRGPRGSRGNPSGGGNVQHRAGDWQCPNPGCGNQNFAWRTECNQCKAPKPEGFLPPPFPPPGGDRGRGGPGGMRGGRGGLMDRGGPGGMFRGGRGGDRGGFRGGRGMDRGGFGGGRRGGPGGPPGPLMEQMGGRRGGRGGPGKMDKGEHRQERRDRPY
UniProt P35637: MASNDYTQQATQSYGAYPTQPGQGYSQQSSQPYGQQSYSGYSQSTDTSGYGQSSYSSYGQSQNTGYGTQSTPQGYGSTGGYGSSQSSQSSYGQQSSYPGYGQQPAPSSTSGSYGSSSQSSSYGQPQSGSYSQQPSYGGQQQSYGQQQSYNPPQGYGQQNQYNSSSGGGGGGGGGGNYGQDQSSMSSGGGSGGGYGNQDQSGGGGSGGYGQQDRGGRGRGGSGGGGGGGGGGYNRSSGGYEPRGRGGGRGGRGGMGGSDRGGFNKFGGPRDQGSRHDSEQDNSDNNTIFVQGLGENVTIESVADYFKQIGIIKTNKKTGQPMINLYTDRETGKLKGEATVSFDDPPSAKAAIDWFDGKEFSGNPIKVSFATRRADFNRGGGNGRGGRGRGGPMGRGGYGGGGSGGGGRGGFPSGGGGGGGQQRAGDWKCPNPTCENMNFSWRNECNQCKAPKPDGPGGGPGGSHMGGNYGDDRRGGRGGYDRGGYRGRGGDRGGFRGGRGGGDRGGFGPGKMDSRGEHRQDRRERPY

Assay [1] concerns the target BRG1 (human (endogenous in MLS 402-91, MLS 1765-92, EWS TC-71, HT1080)) (UniProt P51532). Description: co-IP; BRG1-biotin IP of nuclear extracts of HT1080 cells transiently transfected (24 h) with FUS-DDIT3-EGFP, EWSR1-FLI1-EGFP or EGFP control; western blot. (In general: Immunoblotting shows a protein as a band on a membrane.)
Assay [2] has the same target. Description: co-IP; indirect IP with BRG1-biotin antibody and streptavidin beads of sequential salt nuclear extracts (250, 500 and 1000 mM KCl, diluted to 150 mM) of MLS 402-91 and EWS TC-71; quantitative western blot.

These are yes or no findings as the source states them, for the method shown. In cells and extracts the contact can be indirect. Some binding calls cover weakened binding; strength is not graded here.

On to BAF57 (from UniProt Q969G3 1-411), for which the binding result in assay [1] and in assay [2] was “binds” throughout.

As for “EWSR1 (normal FET protein) (from UniProt Q01844 1-656)”, in assay [2], the binding entry is “binds weakly”.

Consider “FUS (normal FET protein) (from UniProt P35637 1-526)”, for which the binding entry in assay [2] was “binds weakly”.
